Usually AC50 stands for the concentration at which the activity in the assay is half-maximal.

Data on 44 molecules can be found in PubChem BioAssay AID662 (National Center for Advancing Translational Sciences (NCATS), 2007).

Each structure is given as a SMILES string. This is one part of the list. Further columns of the screen follow, without active or inactive calls. Compounds called inactive in the main read-out are mostly missing here. Words in brackets tell the shape of the fitted curve; partial curves, single points and poor fits give uncertain potencies.

A short description of this assay: Cell signaling CRE-BLA (Fsk stim). Particulars: CHO CRE-bla reporter (cAMP response element driving beta-lactamase), forskolin EC10, beta-lactamase ratio; measured here: 460 nm blue channel. An outline of the steps: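 qHTS titration format; CRE-bla CHO reporter; stimulus EC10 NKH 477, a water-soluble forskolin. Read: CCF4 460/530 nm ratio. Potency expressed as AC50 for activators or inhibitors.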
For the molecule `O=C(Cn1nnc2ccccc2c1=O)NC1CCCc2ccccc21` (centres undefined), the half-maximal activity concentration (AC50) is 2 µM [falling, partial curve].

For the molecule `COc1ccc(-c2cc(C(F)F)n3ncc(C(=O)N4CCN5CCCC5C4)c3n2)cc1` (centres undefined), the AC50 was 10 µM [rising, partial curve].

Consider `COc1ccc(C2=NOC(C(=O)NCc3ccccc3)C2)cc1` (centres undefined), for which the concentration at half-maximal activity (AC50) is 10 µM [rising, partial curve].

Turning to `CCn1ncc2c(OCc3ccc(C#N)cc3)cc(C)nc21`, the concentration at half-maximal activity (AC50) was 12.6 µM [rising, partial curve].

Turning to `O=C(CSc1ncnc2sc3c(c12)CCCCC3)NCc1ccco1`, the half-maximal activity concentration (AC50) is 10 µM [rising, partial curve].

For `COc1ccc(-c2nc(CN3CCC(C(=O)NC(C)C)CC3)c(C)o2)cc1OC`, the half-maximal activity concentration (AC50) was 5.01 µM [falling, single point].

Turning to `CCOC(=O)C1=C(CNCc2ccc(C)cc2)NC(=O)NC1c1ccc(OC)cc1` (centres undefined), the half-maximal activity concentration (AC50) was 10 µM [rising, partial curve].

For the molecule `COc1cccc(C(=O)SC2=NCCS2)c1`, the concentration at half-maximal activity (AC50) was 0.501 µM [falling, full curve].

In the case of `Cn1c2ccccc2c(=O)n2c(=O)c3ccccc3cc12`, the concentration at half-maximal activity (AC50) was 3.16 µM [rising, partial curve, poor fit].

For the molecule `c1ccc(-n2nnnc2SCc2cn3cccnc3n2)cc1`, the half-maximal activity concentration (AC50) is 0.2 µM [rising, full curve, poor fit].

Regarding `Cn1c(=O)c2c(nc(NCc3ccccc3)n2CCCc2ccccc2)n(C)c1=O`, the half-maximal activity concentration (AC50) was 15.8 µM [rising, single point].

With `O=C(c1ccccc1)c1nc[nH]c1C(=O)Nc1ccccn1`, the concentration at half-maximal activity (AC50) is 12.6 µM [rising, partial curve].

Consider `CCN(C(=O)COC(=O)c1cnc(C)cn1)C1CCCCC1`, for which the concentration at half-maximal activity (AC50) was 0.00398 µM [falling, full curve, poor fit].

For the molecule `C[C@@H](C(=O)Nc1ccc2ccccc2c1)[C@H]1C[C@]1(C)[C@H](NC(=O)OCc1ccccc1)c1ccccc1`, the AC50 was 1 µM [falling, full curve].

On to `CS(=O)(=O)N1CCc2cc(C(=O)N3CCOCC3)ccc21`, for which the half-maximal activity concentration (AC50) was 0.0251 µM [falling, full curve, poor fit].

With `Cc1cccc2nc(CSc3nnnn3-c3ccccc3)cn12`, the half-maximal activity concentration (AC50) was 10 µM [rising, partial curve].

For `CN(C)S(=O)(=O)c1cccc(-c2nnc(SCc3cc(Cl)cc4c3OCOC4)n2N)c1`, the AC50 was 0.00398 µM [falling, full curve, poor fit].

`CCOCC(=O)Nc1nc2ccc(S(C)(=O)=O)cc2s1`: the concentration at half-maximal activity (AC50) is 2 µM [rising, partial curve].

Consider `COC(=O)c1ccc(CSc2nnc(Nc3ccccc3OC)s2)o1`, for which the AC50 is 12.6 µM [rising, single point].

In the case of `Cc1ccccc1-c1cncnc1NCCN1CCOCC1`, the AC50 is 5.01 µM [rising, full curve].

Consider `Cc1nnc(NC(=O)C2CCCN(c3ncccn3)C2)s1` (centres undefined), for which the AC50 is 3.98 µM [falling, partial curve].

As to `O=S1(=O)N=C(N2CCOCC2)c2ccccc21`, the AC50 was 0.398 µM [falling, partial curve].

In the case of `O=C(Nc1nccs1)C12CC3CC(C1)CC(C(=O)Nc1nccs1)(C3)C2`, the AC50 is 12.6 µM [falling, partial curve].

As for `O=C1NC(c2ccccn2)Nc2sc3c(c21)CCC3` (centres undefined), the concentration at half-maximal activity (AC50) was 6.31 µM [rising, partial curve].

For `COc1ccc(N2CSC3=C(C#N)C(c4cc(OC)ccc4OC)CC(=O)N3C2)c(OC)c1` (centres undefined), the half-maximal activity concentration (AC50) was 12.6 µM [rising, partial curve].

For the molecule `Cc1c(N2CCCC2)cc2c(c1NC(=O)c1ccccc1Cl)C(C)(C)CC2(C)C`, the AC50 was 0.0501 µM [rising, full curve, poor fit].

Take `COc1cc(C)c(S(=O)(=O)Nc2ccccc2F)cc1C`: the concentration at half-maximal activity (AC50) is 0.631 µM [rising, single point].

`COc1ccccc1CNC(=O)C1CCCN(S(=O)(=O)c2cccc3cccnc23)C1` (centres undefined): the AC50 is 12.6 µM [falling, single point].

For the molecule `COc1cccc(C(=O)N(Cc2ccc3c(c2)OCO3)Cc2nc3ccccc3c(=O)[nH]2)c1`, the half-maximal activity concentration (AC50) is 10 µM [rising, partial curve].

As for `O=C(O)CCC(=O)Nc1ccc(Br)cn1`, the AC50 is 25.1 µM [falling, single point].

Take `COc1ccc(C)cc1NC(=O)c1cnc2scc(C)n2c1=O`: the AC50 is 12.6 µM [rising, partial curve].

Regarding `CC1CN(c2oc(Cc3cccc4ccccc34)nc2C#N)CC(C)O1` (centres undefined), the AC50 is 12.6 µM [rising, single point].

With `COc1ccc(CNc2ncncc2-c2ccc(C(=O)N(C)C)cc2)c(OC)c1`, the half-maximal activity concentration (AC50) is 20 µM [rising, partial curve].

Consider `Cc1nc(Cc2nnc(SCc3nc(N)nc(Nc4ccccc4C)n3)o2)cs1`, for which the AC50 is 10 µM [rising, partial curve].

Consider `Cc1cc2ccccc2n1CCNC(=O)C1CC1`, for which the AC50 was 6.31 µM [rising, partial curve].

For the molecule `CN(C)c1ccnc2sc3c(=O)n(Cc4ccccc4)cnc3c12`, the concentration at half-maximal activity (AC50) was 0.0501 µM [falling, full curve, poor fit].

With `O=C(Nc1nonc1NC(=O)C1CCCCC1)C1CCCCC1`, the AC50 was 0.631 µM [rising, partial curve].

Regarding `Cn1c(SCc2nnc(-c3ccc(F)cc3)o2)nnc1C1COc2ccccc2O1` (centres undefined), the half-maximal activity concentration (AC50) is 0.00398 µM [falling, full curve, poor fit].

For the molecule `CCN1C(=O)/C(=C2/Sc3ccc(OC)cc3N2C)SC1=Nc1cccc(O)c1`, the concentration at half-maximal activity (AC50) was 3.98 µM [rising, full curve].

With `CCCC1C(C#N)=C(N)Oc2cc(C)n(C)c(=O)c21` (centres undefined), the AC50 is 12.6 µM [rising, partial curve].

Regarding `COc1ccccc1C1CC(=O)Nc2cc3c(cc21)OCCO3` (centres undefined), the half-maximal activity concentration (AC50) was 15.8 µM [rising, single point].

On to `CCCn1c(SCC(=O)Nc2ccc3c(c2)OCO3)nc2c1c(=O)n(C)c(=O)n2C`, for which the concentration at half-maximal activity (AC50) is 3.98 µM [rising, partial curve].

For the molecule `O=C(Nc1ccc(Cl)cc1)c1cc2nc(-c3ccco3)cc(C(F)(F)F)n2n1`, the AC50 is 5.01 µM [rising, partial curve].

For the molecule `CC1CN(C(=O)C(C)N2C(=O)c3ccccc3C2=O)CC(C)O1` (centres undefined), the half-maximal activity concentration (AC50) is 0.00316 µM [falling, full curve, poor fit].
